Laboratory results published in patent US20210002358A1.
Results are given in words; binding and its absence hold for the method and conditions named. Some binding calls cover weakened binding; strength is not graded here. For some assays here: Sequences can lack the tags named with a protein.

Amino acid sequences for entries named in this document (tags omitted). A change or cut given only in a name is not applied to a line headed by its entry. Chains listed by the source or under a name are the forms on record and can include a tag or linker.
PHF-tau (paired helical filament-tau) purified from cortex of an Alzheimer patient (P10636, form named): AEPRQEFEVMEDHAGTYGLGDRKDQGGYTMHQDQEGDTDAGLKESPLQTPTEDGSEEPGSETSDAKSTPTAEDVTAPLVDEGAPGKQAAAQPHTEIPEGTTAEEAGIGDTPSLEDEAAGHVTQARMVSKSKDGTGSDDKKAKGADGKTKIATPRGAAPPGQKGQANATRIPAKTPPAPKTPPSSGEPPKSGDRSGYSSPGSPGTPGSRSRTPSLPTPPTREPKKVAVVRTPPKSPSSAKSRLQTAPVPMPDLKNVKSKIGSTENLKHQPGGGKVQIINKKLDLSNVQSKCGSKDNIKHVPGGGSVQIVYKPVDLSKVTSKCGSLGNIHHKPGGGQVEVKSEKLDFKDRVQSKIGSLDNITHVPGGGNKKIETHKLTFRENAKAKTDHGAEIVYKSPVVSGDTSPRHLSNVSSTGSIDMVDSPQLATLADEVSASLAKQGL

Assays:
[1] = biological target: PHF-tau (paired helical filament-tau) purified from cortex of an Alzheimer patient (human) (UniProt P10636); assay: SPR sensorgrams, 75, 15, 3 and 0.6 nM
[2] = biological target: PHF-tau (paired helical filament-tau) purified from cortex of an Alzheimer patient (human) (UniProt P10636); assay: SPR, antibody injected at 75, 15, 3 and 0.6 nM over PHF-tau
[3] = biological target: PHF-tau (paired helical filament-tau) purified from cortex of an Alzheimer patient (human) (UniProt P10636); assay: SPR
[4] = biological target: soluble tau (control tau, recombinant 2N4R tau, SEQ ID NO: 31) (human) (UniProt P10636); assay: ELISA, 2N4R Tau coated at 10 ng/mL or 1 ng/mL
[5] = biological target: soluble tau (control tau, recombinant 2N4R tau, SEQ ID NO: 31) (human) (UniProt P10636); assay: ELISA, full-length Tau coated at 1 ng/mL or 10 ng/mL
[6] = biological target: PHF-tau (paired helical filament-tau) purified from cortex of an Alzheimer patient (human) (UniProt P10636); assay: direct ELISA, hybridoma supernatant on 25 ng/well coated PHF-tau
[7] = biological target: soluble tau (control tau, recombinant 2N4R tau, SEQ ID NO: 31) (human) (UniProt P10636); assay: direct ELISA on coated 2N4R Tau (10 ng/mL and 1 ng/mL), anti-mouse HRPO detection
[8] = biological target: soluble tau (control tau, recombinant 2N4R tau, SEQ ID NO: 31) (human) (UniProt P10636); assay: direct ELISA, hybridoma supernatant on 10 ng/well coated control tau
[9] = biological target: PHF-tau (paired helical filament-tau) purified from cortex of an Alzheimer patient (human) (UniProt P10636); assay: SPR, Fab injected at 75, 15, 3 and 0.6 nM over PHF-tau

Row | binding [1] | binding [2] | binding [3] | binding [4] | binding [5] | binding [6] | binding [7] | binding [8] | binding [9] | Binder
1 | binds | binds | binds | – | – | – | – | – | – | PT82 mAb (recombinantly expressed, mouse IgG2a/kappa) (antibody, V domains shown) VH: EVKLEESGGGLVQPGGSMKLSCVASGFTFSNYWMNWIRQSPEKGLEWVAQIRLQSDNYATRYAESVKGRFTISRDESKTSVYLQMNNLRTEDTGIYYCTGGTTYWGQGTLVTVSA VL: DIVMTQSQKFMSTSVGDRVSITCKASQNVGTAVAWYQQKPGQSPKLLIYSASIRYTGVPDRFTGSGSGTDFTLTINYMQSEDLADYFCQQFSSYPYTFGGGTKLEIK
2 | – | – | – | binds | binds | binds | binds | binds | – | PT82 produced by hybridoma (hybridoma supernatant) (antibody, V domains shown) VH: EVKLEESGGGLVQPGGSMKLSCVASGFTFSNYWMNWIRQSPEKGLEWVAQIRLQSDNYATRYAESVKGRFTISRDESKTSVYLQMNNLRTEDTGIYYCTGGTTYWGQGTLVTVSA VL: DIVMTQSQKFMSTSVGDRVSITCKASQNVGTAVAWYQQKPGQSPKLLIYSASIRYTGVPDRFTGSGSGTDFTLTINYMQSEDLADYFCQQFSSYPYTFGGGTKLEIK
3 | binds | – | binds | – | – | – | – | – | binds | PT82 Fab (chimeric, mouse variable domains on human IgG1/kappa constant domains, His tag) (Fab, V domains shown) VH: EVKLEESGGGLVQPGGSMKLSCVASGFTFSNYWMNWIRQSPEKGLEWVAQIRLQSDNYATRYAESVKGRFTISRDESKTSVYLQMNNLRTEDTGIYYCTGGTTYWGQGTLVTVSA VL: DIVMTQSQKFMSTSVGDRVSITCKASQNVGTAVAWYQQKPGQSPKLLIYSASIRYTGVPDRFTGSGSGTDFTLTINYMQSEDLADYFCQQFSSYPYTFGGGTKLEIK
